Measured values published in patent US20230406833A1, “HERBICIDAL MALONAMIDES” (BASF SE, priority 2020, published 2023).
Some of these results come from one statement about several compounds together. Some compounds share one range, which may span the group rather than tell each member.

Experiments:
Format in all cases: in vivo
[1] = system: Apera spica-venti (APESV); experiment: greenhouse pre-emergence herbicidal test; settings: 0.250 kg/ha, scale from 0 to 100
[2] = system: Amaranthus retroflexus (AMARE); experiment: greenhouse pre-emergence herbicidal test; settings: 0.250 kg/ha, scale from 0 to 100
[3] = system: Alopercurus myosuroides (ALOMY); experiment: greenhouse post-emergence herbicidal test; settings: 0.250 kg/ha, scale from 0 to 100
[4] = system: Abutilon theophrasti (ABUTH); experiment: greenhouse post-emergence herbicidal test; settings: 0.250 kg/ha, scale from 0 to 100
[5] = system: Avena fatua (AVEFA); experiment: greenhouse post-emergence herbicidal test; settings: scale from 0 to 100
[6] = system: Amaranthus retroflexus (AMARE); experiment: greenhouse post-emergence herbicidal test; settings: scale from 0 to 100
[7] = system: Fallopia convolvulus (POLCO); experiment: greenhouse post-emergence herbicidal test; settings: 0.0625 kg/ha, scale from 0 to 100
[8] = system: Setaria viridis (SETVI); experiment: greenhouse post-emergence herbicidal test; settings: scale from 0 to 100
[9] = system: Setaria faberi (SETFA); experiment: greenhouse pre-emergence herbicidal test; settings: 0.250 kg/ha, scale from 0 to 100
[10] = system: Abutilon theophrasti (ABUTH); experiment: greenhouse pre-emergence herbicidal test; settings: scale from 0 to 100
[11] = system: Echinocloa crus-galli (ECHCG); experiment: greenhouse post-emergence herbicidal test; settings: 0.250 kg/ha, scale from 0 to 100
[12] = system: Setaria viridis (SETVI); experiment: greenhouse pre-emergence herbicidal test; settings: 0.250 kg/ha, scale from 0 to 100
[13] = system: Lolium multiflorum (LOLMU); experiment: greenhouse post-emergence herbicidal test; settings: 0.0625 kg/ha, scale from 0 to 100
[14] = system: Echinocloa crus-galli (ECHCG); experiment: greenhouse pre-emergence herbicidal test; settings: 0.250 kg/ha, scale from 0 to 100

C#CCNC(=O)CCC(C)NC(=O)C1(C(=O)Nc2cc(F)cc(F)c2)CCO1 (stereo not shown) [I.141]
herbicidal activity against APESV [1]: good (A good herbicidal activity is given at values of 70 to <90)
herbicidal activity against AMARE [2]: very good (a very good herbicidal activity is given at values of 90 to 100)
herbicidal activity against ALOMY [3]: good (A good herbicidal activity is given at values of 70 to <90)
herbicidal activity against ABUTH [4]: good (A good herbicidal activity is given at values of 70 to <90)
herbicidal activity against AVEFA ([5]; 0.250 kg/ha): very good (a very good herbicidal activity is given at values of 90 to 100)

CS(=O)(=O)CCOC(=O)CCCNC(=O)C1(C(=O)Nc2cc(F)cc(F)c2)CCO1 (stereo not shown) [I.130]
herbicidal activity against AMARE ([6]; 0.0625 kg/ha): very good (a very good herbicidal activity is given at values of 90 to 100)
herbicidal activity against POLCO [7]: very good (a very good herbicidal activity is given at values of 90 to 100)

COC(=O)C1CCC(NC(=O)C2(C(=O)Nc3cc(F)cc(F)c3)CCO2)C1 (stereo not shown) [I.128]
herbicidal activity against AMARE ([6]; 0.0625 kg/ha): very good (a very good herbicidal activity is given at values of 90 to 100)
herbicidal activity against SETVI ([8]; 0.0625 kg/ha): very good (a very good herbicidal activity is given at values of 90 to 100)
herbicidal activity against POLCO [7]: very good (a very good herbicidal activity is given at values of 90 to 100)

CC(C)OC(=O)C1C=CC(NC(=O)C2(C(=O)Nc3cccc(OC(F)(F)F)c3)CCCO2)C1 (stereo not shown) [I.116]
herbicidal activity against SETFA [9]: very good (a very good herbicidal activity is given at values of 90 to 100)
herbicidal activity against ABUTH ([10]; 0.250 kg/ha): good (A good herbicidal activity is given at values of 70 to <90)
herbicidal activity against ECHCG [11]: very good (a very good herbicidal activity is given at values of 90 to 100)
herbicidal activity against SETVI ([8]; 0.250 kg/ha): very good (a very good herbicidal activity is given at values of 90 to 100)
herbicidal activity against ABUTH [4]: very good (a very good herbicidal activity is given at values of 90 to 100)

CSCCOC(=O)CCCNC(=O)C1(C(=O)Nc2cc(F)cc(F)c2)CCO1 (stereo not shown) [I.131]
herbicidal activity against AMARE ([6]; 0.0625 kg/ha): very good (a very good herbicidal activity is given at values of 90 to 100)
herbicidal activity against POLCO [7]: very good (a very good herbicidal activity is given at values of 90 to 100)
herbicidal activity against AVEFA ([5]; 0.0625 kg/ha): very good (a very good herbicidal activity is given at values of 90 to 100)

COC(=O)[C@@H]1C=C[C@H](NC(=O)C2(C(=O)Nc3cc(Cl)cc(Cl)c3)CCCN2)C1 (stereo partly drawn) [I.33, methyl (1S,4R)-4-[[2-[(3,5-dichlorophenyl)carbamoyl]pyrrolidine-2-carbonyl]amino]cyclopent-2-ene-1-carboxylate]
herbicidal activity against ABUTH ([10]; 0.250 kg/ha): good (A good herbicidal activity is given at values of 70 to <90)
herbicidal activity against ABUTH [4]: good (A good herbicidal activity is given at values of 70 to <90)

COC(=O)CC[C@H](C)NC(=O)C1(C(=O)Nc2cc(Cl)cc(Cl)c2)OC(C)C=C1C (stereo partly drawn) [Compound I30, methyl (4S)-4-[[5-[(3,5-dichlorophenyl)carbamoyl]-2,4-dimethyl-2H-furan-5-carbonyl]amino]pentanoate]
herbicidal activity against ABUTH ([10]; 0.125 kg/ha): good (A good herbicidal activity is given at values of 70 to <90)

O=C([O-])C1C=CC(NC(=O)C2(C(=O)Nc3cc(Cl)cc(Cl)c3)C=CCO2)C1.[Li+] (mixture of isomers) [I.202]
herbicidal activity against SETVI [12]: very good (a very good herbicidal activity is given at values of 90 to 100)
herbicidal activity against AMARE [2]: very good (a very good herbicidal activity is given at values of 90 to 100)
herbicidal activity against ALOMY [3]: very good (a very good herbicidal activity is given at values of 90 to 100)
herbicidal activity against AMARE ([6]; 0.250 kg/ha): very good (a very good herbicidal activity is given at values of 90 to 100)
herbicidal activity against ECHCG [11]: very good (a very good herbicidal activity is given at values of 90 to 100)
herbicidal activity against AVEFA ([5]; 0.250 kg/ha): good (A good herbicidal activity is given at values of 70 to <90)

CC(C)OC(=O)C1C=CC(NC(=O)C2(C(=O)Nc3cccc(F)c3)CCO2)C1 (stereo not shown) [I.132]
herbicidal activity against SETVI ([8]; 0.0625 kg/ha): very good (a very good herbicidal activity is given at values of 90 to 100)
herbicidal activity against POLCO [7]: very good (a very good herbicidal activity is given at values of 90 to 100)
herbicidal activity against LOLMU [13]: very good (a very good herbicidal activity is given at values of 90 to 100)

COC(=O)C1CCC(NC(=O)C2(C(=O)Nc3cc(Cl)cc(Cl)c3)CCCO2)C1 (stereo not shown) [I.108]
herbicidal activity against POLCO [7]: good (A good herbicidal activity is given at values of 70 to <90)
herbicidal activity against LOLMU [13]: very good (a very good herbicidal activity is given at values of 90 to 100)

COC(=O)CCCNC(=O)C1(C(=O)Nc2cc(F)cc(F)c2)CCO1 (stereo not shown) [I.127]
herbicidal activity against AMARE ([6]; 0.0625 kg/ha): very good (a very good herbicidal activity is given at values of 90 to 100)
herbicidal activity against SETVI ([8]; 0.0625 kg/ha): very good (a very good herbicidal activity is given at values of 90 to 100)
herbicidal activity against LOLMU [13]: very good (a very good herbicidal activity is given at values of 90 to 100)

CC(C)OC(=O)C1C=CC(NC(=O)C2(C(=O)Nc3cccc(Cl)c3)CCCO2)C1 (stereo not shown) [I.114]
herbicidal activity against ECHCG [14]: very good (a very good herbicidal activity is given at values of 90 to 100)
herbicidal activity against ABUTH ([10]; 0.250 kg/ha): good (A good herbicidal activity is given at values of 70 to <90)
herbicidal activity against ALOMY [3]: very good (a very good herbicidal activity is given at values of 90 to 100)
herbicidal activity against ECHCG [11]: very good (a very good herbicidal activity is given at values of 90 to 100)
herbicidal activity against ABUTH [4]: very good (a very good herbicidal activity is given at values of 90 to 100)

CC(C)OC(=O)C1C=CC(NC(=O)C2(C(=O)Nc3cc(F)c(F)c(F)c3)CCO2)C1 (stereo not shown) [I.133]
herbicidal activity against AMARE ([6]; 0.0625 kg/ha): very good (a very good herbicidal activity is given at values of 90 to 100)
herbicidal activity against SETVI ([8]; 0.0625 kg/ha): very good (a very good herbicidal activity is given at values of 90 to 100)
herbicidal activity against LOLMU [13]: very good (a very good herbicidal activity is given at values of 90 to 100)

CC(C)OC(=O)C1C=CC(NC(=O)C2(C(=O)Nc3cccc(OC(F)(F)F)c3)CCO2)C1 (stereo not shown) [I.134]
herbicidal activity against AMARE ([6]; 0.0625 kg/ha): very good (a very good herbicidal activity is given at values of 90 to 100)
herbicidal activity against POLCO [7]: very good (a very good herbicidal activity is given at values of 90 to 100)

Cn1nnnc1NC(=O)C1(C(=O)Nc2cc(F)c(F)c(F)c2)CCO1 (racemic) [I.5]
herbicidal activity against APESV [1]: very good (a very good herbicidal activity is given at values of 90 to 100)
herbicidal activity against AMARE [2]: good (A good herbicidal activity is given at values of 70 to <90)
herbicidal activity against ALOMY [3]: very good (a very good herbicidal activity is given at values of 90 to 100)
herbicidal activity against ABUTH [4]: very good (a very good herbicidal activity is given at values of 90 to 100)
herbicidal activity against AVEFA ([5]; 0.250 kg/ha): very good (a very good herbicidal activity is given at values of 90 to 100)

COC(=O)C1CC(NC(=O)C2(C(=O)Nc3cc(Cl)cc(Cl)c3)CCCO2)CO1 (stereo not shown) [I.106]
herbicidal activity against POLCO [7]: good (A good herbicidal activity is given at values of 70 to <90)

COC(=O)CC(C)NC(=O)C1(C(=O)Nc2cc(Cl)cc(Cl)c2)C=CCO1 (mixture of isomers) [I.25]
herbicidal activity against SETVI ([8]; 0.0625 kg/ha): very good (a very good herbicidal activity is given at values of 90 to 100)
herbicidal activity against LOLMU [13]: very good (a very good herbicidal activity is given at values of 90 to 100)
herbicidal activity against AVEFA ([5]; 0.0625 kg/ha): very good (a very good herbicidal activity is given at values of 90 to 100)

CC(C)OC(=O)C1C=CC(NC(=O)C2(C(=O)Nc3cc(F)c(F)c(Cl)c3)C=CCO2)C1 (mixture of isomers) [I.198]
herbicidal activity against AMARE [2]: very good (a very good herbicidal activity is given at values of 90 to 100)
herbicidal activity against ALOMY [3]: good (A good herbicidal activity is given at values of 70 to <90)
herbicidal activity against AMARE ([6]; 0.250 kg/ha): good (A good herbicidal activity is given at values of 70 to <90)
herbicidal activity against ECHCG [11]: very good (a very good herbicidal activity is given at values of 90 to 100)
herbicidal activity against AVEFA ([5]; 0.250 kg/ha): very good (a very good herbicidal activity is given at values of 90 to 100)

CCOC(=O)C1C=CC(NC(=O)C2(C(=O)Nc3cc(Cl)cc(Cl)c3)C=CCO2)C1 (mixture of isomers) [I.200]
herbicidal activity against SETVI [12]: very good (a very good herbicidal activity is given at values of 90 to 100)
herbicidal activity against AMARE [2]: good (A good herbicidal activity is given at values of 70 to <90)
herbicidal activity against ALOMY [3]: very good (a very good herbicidal activity is given at values of 90 to 100)
herbicidal activity against AMARE ([6]; 0.250 kg/ha): good (A good herbicidal activity is given at values of 70 to <90)
herbicidal activity against ECHCG [11]: very good (a very good herbicidal activity is given at values of 90 to 100)
herbicidal activity against AVEFA ([5]; 0.250 kg/ha): very good (a very good herbicidal activity is given at values of 90 to 100)

COC(=O)C1C=CC(NC(=O)C2(C(=O)Nc3cc(Cl)cc(Cl)c3)CC(C)=C(C)CO2)C1 (mixture of isomers) [I.36]
herbicidal activity against SETFA [9]: very good (a very good herbicidal activity is given at values of 90 to 100)
herbicidal activity against ABUTH ([10]; 0.125 kg/ha): good (A good herbicidal activity is given at values of 70 to <90)
